In patent US20210284952A1, “METHODS OF APPLYING ACETATE TOXICITY AND INDUCING ACETATE UPTAKE IN MICROALGAE CULTURES” (HELIAE DEVELOPMENT LLC, priority 2016, published 2021):
Read-outs that look alike come from different tables or passages of the source.

How the values were obtained:
Chlorella sp. HS26 = settings: stabilized value after pH lowered to 6.5
[1] = system: Aurantiochytrium sp. HS399

Compound: CC(=O)O [Acetic Acid, acetic acid]
- internal acetate concentration (Chlorella sp. HS26): above 1500 ppm
- Average residual Acetate ([1]; pH 4.5, averaged over days 1-6): 2.0 g/L
- Average residual Acetate ([1]; pH 5.0, averaged over days 1-6): 1.5 g/L
- Average residual Acetate ([1]; pH 5.5, averaged over days 1-6): 1.25 g/L
- Average residual Acetate ([1]; pH 7.0, averaged over days 1-6): 1.0 g/L
